Inconclusive results, whose numbers are uncertain, are shown with a selection of clear calls. Where the call is inconclusive, the potency comes from a doubtful curve fit. Some compounds were tested as several samples or in several runs, with calls that do not always agree. Calls of active or inactive are those of the source. The call rests on the fitted dose curve.
Target: Retinoic acid receptor RXR-alpha (Homo sapiens) (UniProt P19793)
Assay: qHTS assay to identify small molecule agonists of the RXR signaling pathway (AID 1159527); further: nearly all actives have a fitted effect of over 35% in size
Details: HEK293T RXRa-UAS-bla, beta-lactamase ratio, 16 h; activation: at 76.8 µM (top of the series) unless noted
Outline: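 Fluorescence ratio readout (460 vs 530 nm) from GeneBLAzer RXR-alpha HEK 293T cells after 16 hr compound treatment; cells seeded 5 hr beforehand in low-serum, charcoal-stripped medium.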
On the % scale 0 is the no-effect control and ±100 the full control effect; potency means the concentration at half of the fitted maximal effect.

By UniProt entry, the sequences of proteins in these tests, tags left out. Where a name states a change or a piece, a line headed by the entry shows the natural chain unless it says otherwise.
UniProt P19793: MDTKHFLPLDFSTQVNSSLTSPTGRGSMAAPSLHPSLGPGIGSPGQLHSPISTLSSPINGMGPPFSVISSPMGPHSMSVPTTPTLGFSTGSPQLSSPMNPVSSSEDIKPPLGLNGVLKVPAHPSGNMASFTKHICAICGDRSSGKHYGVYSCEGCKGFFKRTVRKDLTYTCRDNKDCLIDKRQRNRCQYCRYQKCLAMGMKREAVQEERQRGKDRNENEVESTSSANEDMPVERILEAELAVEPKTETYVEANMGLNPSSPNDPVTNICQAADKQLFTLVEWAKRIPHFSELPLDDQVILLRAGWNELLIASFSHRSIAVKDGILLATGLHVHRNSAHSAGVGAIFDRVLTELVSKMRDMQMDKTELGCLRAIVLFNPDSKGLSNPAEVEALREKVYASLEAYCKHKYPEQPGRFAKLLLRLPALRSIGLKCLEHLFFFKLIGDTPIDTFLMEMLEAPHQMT

Row | Compound | Potency | activation
1 | Cc1nc(-c2ccc(OCC(C)C)c(C#N)c2)sc1C(=O)O | inconclusive: 10.7 µM | –
2 | O=C(NO)C1(NS(=O)(=O)c2ccc(Oc3ccc(F)cc3)cc2)CCOCC1 | inconclusive: 38.9 µM [inhibitor, partial curve] | –
3 | CC(C)Oc1ccccc1O | – | inconclusive: 15.4%
4 | C/C(=C\C(C)CC(C)CC(C)C)C1CC(=O)OC1=O (stereo unspecified) | inconclusive: 27.6 µM [rising, partial curve, poor fit] | –
5 | c1ccc2c(c1)c1cccc3ccc4cccc2c4c31 | active: 43.4 µM | –
6 | N[C@@H](CS)C(=O)O | inactive | –
7 | Cc1cc2c(cc1C(F)(F)F)N(C(=O)Nc1ccc(Oc3cccnc3C)nc1)CC2 | – | inconclusive: 2.37%
8 | C=CCc1ccc(OC)c(OC)c1 | active: 7.76 µM | –
9 | Nc1cc(Cl)c(O)c(Cl)c1 | inconclusive: 61.6 µM [rising, partial curve, poor fit] | –
10 | CCCCCC/C=C\CCCCCCCC(=O)O | – | inconclusive: 4.19%
11 | CCO[Si](CCCSSSSCCC[Si](OCC)(OCC)OCC)(OCC)OCC | inconclusive: 49 µM [cytotoxic, single point] | –
12 | CC(C)CCCCCCc1ccc(OCCOCCO)cc1 | inactive | –
13 | Nc1nc2ccccc2n1Cc1ccc(F)cc1 | inconclusive: 10.7 µM [falling, partial curve, poor fit] | –
14 | O=CCCCC=O | inactive | –
15 | CCCCC | inactive | –
16 | CCCCCCCCC(=O)OCC(C)OC(=O)CCCCCCCC (stereo unspecified) | inconclusive: 40.7 µM [inhibitor, partial curve, poor fit] | –

Record cards, as listed above:
CC(C)CCCCCCc1ccc(OCCOCCO)cc1 reads Potency: inactive
CCCCC reads Potency: inactive

Source: PubChem BioAssay (Tox21)
